Drawing on US20160024194A1, this text covers binding for three molecules.

To fix the notation:
B1: 7A8 monoclonal antibody produced by hybridoma PTA-120971 (antibody, V domains shown)
VH: QVQLRESEPGLVAPSRSLSITCTVSGFSLTSYAVSWVRQPPGKGLEWLGVIWTGGGTNYNSALKSRLSISKDNSKNQVFLKMNSLQTDDTARYYCARYSNLYYAMDYWGQGTSVTVSS
VL: DIVMTQSQKFMSTSVGERVSITCKASQNVGTNVAWYQQKAGQSLELLIYGASNRHTGVPDRFTGSGSGTDFTLTITNVQSEDMTNYFCEQYRSYPLTFGGGSKLEIK
B2: 7A2 monoclonal antibody produced by hybridoma PTA-120970 (antibody, V domains shown)
VH: B1 VH with R16Q, K71R
VL: B1 VL
B3: 6E7 monoclonal antibody produced by hybridoma PTA-120972 (antibody, V domains shown)
VH: QVQLQQPGSVLVRPGASVKLSCKASGYTFTSYWMHWAKQRPGQGLEWIGQIHPISGNIKYNEKFKGKATLTVDTSPSTAYVDLSSLTSEDSAVYYCARDTYYTNNDAVDYWGQGTSVTVSS
VL: DIVMTQSHKFMSTSVGDRVSITCKASQDVGSVVAWYQQKPGQSPKLLIYWASTRHTGIPNRFTGRGSGTDFTLTITNVQSEDLADYFCQQYSNYPLTFGAGTKLELK

Positions count from the first letter of the chain named. No constants are given. Whether binding was seen depends on the method and setting. A result given as binding can be weak or reduced; the word gives no strength.

For one assay, the target named is human fibrin fragment E (FFE) (human). The experiment in a line: ELISA of parental hybridoma clone supernatant, on FFE.
In the case of B1, the binding result is recorded as “binds”.
Still for that read-out and setting: next, B2: “binds”.
With B3, the binding result is reported as “binds”.

For a further assay the target is unchanged. The experiment in a line: ELISA.
On to B1, for which the binding result is “binds”.
With B2, the binding result is reported as “binds”.
In the case of B3, the binding result is recorded as “binds”.
